Patent publication US11084803B2, “Activators of class I histone deacetylases (HDACs) and uses thereof” (Massachusetts Institute of Technology, priority 2011, dated 2021)
At least one compound was matched to its structure with a doubt left.

The chains behind the UniProt entries cited, without tags or fusion partners.
UniProt Q13547, whole entry: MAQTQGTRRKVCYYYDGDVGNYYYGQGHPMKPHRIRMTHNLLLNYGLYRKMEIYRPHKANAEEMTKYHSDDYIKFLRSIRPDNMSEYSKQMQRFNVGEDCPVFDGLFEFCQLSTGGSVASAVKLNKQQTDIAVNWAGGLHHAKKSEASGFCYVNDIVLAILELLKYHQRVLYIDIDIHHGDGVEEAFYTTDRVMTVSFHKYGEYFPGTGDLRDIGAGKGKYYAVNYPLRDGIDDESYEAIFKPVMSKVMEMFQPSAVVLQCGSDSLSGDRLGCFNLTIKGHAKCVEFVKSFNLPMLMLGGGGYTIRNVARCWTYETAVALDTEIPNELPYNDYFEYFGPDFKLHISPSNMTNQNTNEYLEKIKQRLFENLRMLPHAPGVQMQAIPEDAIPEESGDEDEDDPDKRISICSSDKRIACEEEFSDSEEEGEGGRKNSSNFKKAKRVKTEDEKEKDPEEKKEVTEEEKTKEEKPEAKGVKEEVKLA

Target: T1, Recombinant, full-length human HDAC1 (Homo sapiens, UniProt Q13547)
T1 construct: FLAG (C); purchased BPS Biosciences (San Diego, Calif.); host or cells: insect cells (Sf9)
Assay: Primary HDAC1 high-throughput screen, microfluidics-based deacetylase assay, single concentration
Format: biochemical
Details: FIG. 3A, 3B
Protocol: Recombinant, full-length human HDAC1 (GenBank Accession No. NM_004964) with a C-terminal FLAG tag was produced by BPS Biosciences (San Diego, Calif.) using large-scale insect cell protein expression and purification in order to support a large-scale high-throughput screen (HTS).
Compounds were tested with a reaction time of 6 h with compounds tested at a single concentration (10 μM) in duplicate. As a positive control, the biflavonoid gingketin was chosen.
Compounds were tested in duplicate at 10 μM nominal final concentration in 384-well plate format. The reference activator compound, ginkgetin (50 μM), was included in duplicates in each HTS plate as a positive control condition, 24 negative control samples (DMSO only) were included in each plate to provide for the 0% activation baseline.
Within each HTS plate, the effect of individual compounds on the enzymatic activity of HDAC1 was calculated as % change in the conversion of the peptide substrate relative to the average substrate conversion value calculated across the 24 negative control samples.

SMILES: COc1cc(O)c2c(=O)cc(-c3ccc(OC)c(-c4c(O)cc(O)c5c(=O)cc(-c6ccc(O)cc6)oc45)c3)oc2c1 [ginkgetin, reference compound]
- conversion of peptidic substrate FAM-TSRHKacKL to FAM-TSRHKKL (microfluidic fluorescence reader trace): increased conversion
